Values from PubChem BioAssay AID1508597 (Cure First, 2020)

Purpose: 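Genes whose silencing sensitises or protects ovarian cancer cells against rucaparib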 (primary screen)
Cells: human ovarian carcinoma lines grown from tumours: OCI-P5x (papillary serous) and OCI-C5x (clear cell)
Reagent: siRNA pool against human genes, 1.25 pmol siRNA per well
Time to read-out: 72 h or 96 h, depending on the cell culture
Conditions: rucaparib 20 µM (about IC30) or vehicle, present until read-out
Rucaparib or vehicle: Vehicle
Cell line: OCI-P5x (serous)
Read-out: 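Luminescent ATP-based viability assay read 72 or 96 h after transfection, depending on culture, given as normalised percent viability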
Scale: viability, normalised: higher = more viable cells remaining
Call rule: 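a well counts as a hit if its normalised viability is under 80 percent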
Calls: active = viability under 80%; inactive = viability 80% or more
This is an unselected part of the about 2,100 reagents, under one of the conditions tested. 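Calls flag viability under 80% in either arm, not effects specific to rucaparib; the reference for percent is not stated.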 Unmarked entries are inactive. Some reagents were tested in more than one well and are listed for each. The record does not give: the 100% reference.

| Target gene | technical replicate | viability, normalised (%) |
| --- | --- | --- |
| DNMT3B | 1 | 51.4 (active) |
| DNMT3B | 2 | 64 (active) |
| DNMT3B | 3 | 53.3 (active) |
| MSH2 | 1 | 81.9 |
| MSH2 | 1 | 54.1 (active) |
| MSH2 | 2 | 68.6 (active) |
| MSH2 | 2 | 69.6 (active) |
| MSH2 | 3 | 74.5 (active) |
| MSH2 | 3 | 51 (active) |
| PFKL | 1 | 111 |
| PFKL | 2 | 95 |
| PFKL | 3 | 94.9 |
| ATP5F1D | 1 | 75.9 (active) |
| ATP5F1D | 2 | 78.9 (active) |
| ATP5F1D | 3 | 78.3 (active) |
| TGFB1 | 1 | 102 |
| TGFB1 | 2 | 95.1 |
| TGFB1 | 3 | 93.3 |
| MYSM1 | 1 | 68.5 (active) |
| MYSM1 | 2 | 61.5 (active) |
| MYSM1 | 3 | 87.9 |
| SMC1A | 1 | 44.2 (active) |
| SMC1A | 1 | 133 |
| SMC1A | 2 | 53.6 (active) |
| SMC1A | 2 | 109 |
| SMC1A | 3 | 60.3 (active) |
| SMC1A | 3 | 130 |

No new results follow: an excerpt of the list.
| Target gene | technical replicate | viability, normalised (%) |
| --- | --- | --- |
| DNMT3B | 3 | 53.3 (active) |
| MSH2 | 1 | 81.9 |
| MSH2 | 1 | 54.1 (active) |
| MSH2 | 2 | 68.6 (active) |
